Record: PubChem BioAssay AID1159578 (Peter MacCallum Cancer Centre, 2015)
Assay: 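siRNA pools altering how lymphatic endothelial cells close a scratch wound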 (primary screen). Cell system: human lymphatic endothelial cells. Reagents: siRNA pool against human genes, 40 nM. Duration: 48 h after transfection. Measured: 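Cells stained with dye and imaged after a scratch; covered wound area and nuclei counted, duplicates averaged, migration set against mock wells and turned into a robust z-score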. Direction: migration robust z-score: higher = faster migration into the scratch; migration relative to mock: higher = more scratch area covered than mock; nuclei per well: higher = more cells in the well. Active means: 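Pools averaging fewer than 3300 nuclei are never called; remaining pools count as changed when migration robust z lies outside -2 to 2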. Calls: active = migration changed; inactive = no migration change, or too few cells.
The deposit covers about 18,000 reagents; shown is an unselected part. About 1,030 of them (5.7%) count as active. 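Inactive calls also include pools with fewer than 3300 nuclei, whose migration was not assessed.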 Raw values are not corrected between plates. A number with no mark means an inactive call.

| gene | migration robust z-score | migration class with cell-count check | migration relative to mock | nuclei per well, duplicate mean |
| --- | --- | --- | --- | --- |
| SLC23A3 | 0.73 | migration z between -2 and 2; enough cells | 0.94 | 6195 |
| OR51Q1 (olfactory receptor family 51 subfamily Q member 1) | 2.15 (active) | migration z above 2; enough cells | 1.45 | 5168 |
| ADGRE2 (adhesion G protein-coupled receptor E2) | 0.36 | migration z between -2 and 2; enough cells | 0.88 | 5920 |
| ZNF154 (zinc finger protein 154) | -0.73 | migration z between -2 and 2; enough cells | 0.7 | 6498 |
| SLC43A3 | 0.15 | migration z between -2 and 2; enough cells | 0.92 | 5836 |
| ATRNL1 (attractin like 1) | 0.64 | migration z between -2 and 2; enough cells | 1.05 | 6236 |
| GBP2 (guanylate binding protein 2) | -0.57 | migration z between -2 and 2; enough cells | 0.7 | 6178 |
| SWSAP1 (SWIM-type zinc finger 7 associated protein 1) | 1.27 | migration z between -2 and 2; enough cells | 1.21 | 6380 |
| GMPPB (GDP-mannose pyrophosphorylase B) | -0.13 | migration z between -2 and 2; enough cells | 0.78 | 4936 |
| GPATCH4 (G-patch domain containing 4 (gene/pseudogene)) | 3.5 (active) | migration z above 2; enough cells | 1.8 | 5903 |
| RAPGEF6 (Rap guanine nucleotide exchange factor 6) | -1.03 | under 3300 nuclei; migration not judged | 0.6 | 3259 |
| N4BP3 (NEDD4 binding protein 3) | -0.39 | migration z between -2 and 2; enough cells | 0.78 | 5128 |
| IL37 (interleukin 37) | -0.44 | migration z between -2 and 2; enough cells | 0.78 | 5634 |
| NTAN1 (N-terminal asparagine amidase) | 1.28 | migration z between -2 and 2; enough cells | 1.21 | 6026 |
| KLF11 (KLF transcription factor 11) | 1.25 | migration z between -2 and 2; enough cells | 1.04 | 4263 |
| NUDT3 (nudix hydrolase 3) | 0.21 | migration z between -2 and 2; enough cells | 0.84 | 6101 |
| CHN2 (chimerin 2) | 0.91 | migration z between -2 and 2; enough cells | 1.12 | 5584 |
| SLC12A4 | -0.73 | migration z between -2 and 2; enough cells | 0.66 | 4986 |
| AHCY (adenosylhomocysteinase) | -2.59 (active) | migration z below -2; enough cells | 0.3 | 3891 |
| DGKA (diacylglycerol kinase alpha) | -4.23 | under 3300 nuclei; migration not judged | -0.01 | 2428 |
| IVD (isovaleryl-CoA dehydrogenase) | -1.35 | migration z between -2 and 2; enough cells | 0.54 | 5392 |
| CLCN4 (Cl-/H+ antiporter 4) | 0.8 | migration z between -2 and 2; enough cells | 0.96 | 5134 |
| ZNF503 (zinc finger protein 503) | -0.41 | migration z between -2 and 2; enough cells | 0.78 | 6328 |
| ECI2 (enoyl-CoA delta isomerase 2) | -0.65 | migration z between -2 and 2; enough cells | 0.68 | 4494 |
| PSG3 (pregnancy specific beta-1-glycoprotein 3) | 0.03 | migration z between -2 and 2; enough cells | 0.89 | 4992 |
| HAS1 (hyaluronan synthase 1) | -1.3 | migration z between -2 and 2; enough cells | 0.55 | 4772 |
| BDKRB1 (bradykinin receptor B1) | 0.54 | migration z between -2 and 2; enough cells | 0.91 | 6820 |
| CDAN1 (codanin 1) | 0.8 | migration z between -2 and 2; enough cells | 1.09 | 4748 |
| OR11H6 (olfactory receptor family 11 subfamily H member 6) | -1.48 | migration z between -2 and 2; enough cells | 0.5 | 4486 |
| DEF8 (differentially expressed in FDCP 8 homolog) | -0.44 | migration z between -2 and 2; enough cells | 0.77 | 5890 |
| SLX1A (structure-specific endonuclease subunit SLX1A) | 0.71 | migration z between -2 and 2; enough cells | 1.07 | 6178 |
| GPR180 (G protein-coupled receptor 180) | -0.78 | migration z between -2 and 2; enough cells | 0.68 | 6090 |
| HIPK3 (homeodomain interacting protein kinase 3) | -5.16 | under 3300 nuclei; migration not judged | -0.19 | 2930 |
| CLEC6A (C-type lectin domain containing 6A) | -0.68 | migration z between -2 and 2; enough cells | 0.7 | 5146 |
| TIMP3 (TIMP metallopeptidase inhibitor 3) | 0.34 | migration z between -2 and 2; enough cells | 0.87 | 5629 |
| DEFB103B (defensin beta 103B) | -1.63 | migration z between -2 and 2; enough cells | 0.46 | 5762 |
| CCL4L1 (C-C motif chemokine ligand 4 like 1) | -0.67 | migration z between -2 and 2; enough cells | 0.71 | 5032 |
| EDC3 (enhancer of mRNA decapping 3) | -1.9 | migration z between -2 and 2; enough cells | 0.39 | 5144 |
| CHAC2 (ChaC glutathione specific gamma-glutamylcyclotransferase 2) | 1.08 | migration z between -2 and 2; enough cells | 1.17 | 6240 |
| PRDX5 (peroxiredoxin 5) | 0.62 | migration z between -2 and 2; enough cells | 0.92 | 6341 |
| FGG (fibrinogen gamma chain) | 1.38 | migration z between -2 and 2; enough cells | 1.07 | 5980 |
| MRGPRE (MAS related GPR family member E) | -0.44 | migration z between -2 and 2; enough cells | 0.72 | 6386 |
| ADGRD1 (adhesion G protein-coupled receptor D1) | 2.12 (active) | migration z above 2; enough cells | 1.21 | 5976 |
| CCL13 (C-C motif chemokine ligand 13) | -1.82 | migration z between -2 and 2; enough cells | 0.46 | 5070 |
| POLR1H (RNA polymerase I subunit H) | 1.46 | migration z between -2 and 2; enough cells | 1.08 | 5235 |
| RABEPK (Rab9 effector protein with kelch motifs) | -1.84 | migration z between -2 and 2; enough cells | 0.4 | 4027 |
| RRM1 (ribonucleotide reductase catalytic subunit M1) | -1.63 | migration z between -2 and 2; enough cells | 0.49 | 4046 |
| ZRSR2 | -0.6 | migration z between -2 and 2; enough cells | 0.73 | 6218 |
| PHLPP1 (PH domain and leucine rich repeat protein phosphatase 1) | -0.44 | migration z between -2 and 2; enough cells | 0.72 | 6397 |
| F8A3 (coagulation factor VIII associated 3) | 0.2 | migration z between -2 and 2; enough cells | 0.94 | 5532 |
| AFF1 (ALF transcription elongation factor 1) | -1.72 | migration z between -2 and 2; enough cells | 0.44 | 4872 |
| EPS8L1 (EPS8 signaling adaptor L1) | 0.17 | migration z between -2 and 2; enough cells | 0.94 | 5838 |
| IZUMO1R (IZUMO1 receptor, JUNO) | -0.72 | migration z between -2 and 2; enough cells | 0.7 | 4451 |
| LRATD1 (LRAT domain containing 1) | -0.17 | migration z between -2 and 2; enough cells | 0.84 | 6816 |
| CYP3A43 (cytochrome P450 family 3 subfamily A member 43) | 0.98 | migration z between -2 and 2; enough cells | 1.14 | 6024 |
| PRICKLE3 (prickle planar cell polarity protein 3) | 0.44 | migration z between -2 and 2; enough cells | 0.89 | 4923 |
| C4B (complement C4B (Chido/Rodgers blood group)) | -0.64 | migration z between -2 and 2; enough cells | 0.72 | 5571 |
